In publication PMC8298264, “Function of cofactor Akirin2 in the regulation of gene expression in model human neutrophil-like HL60 cells” (Bioscience Reports, 2021):

B1: sp¦Q12788¦TBL3_HUMAN (protein, UniProt Q12788 2-808, looked up)
Transducin beta-like protein 3: AETAAGVGRFKTNYAVERKIEPFYKGGKAQLDQTGQHLFCVCGTRVNILEVASGAVLRSLEQEDQEDITAFDLSPDNEVLVTASRALLLAQWAWQEGSVTRLWKAIHTAPVATMAFDPTSTLLATGGCDGAVRVWDIVRHYGTHHFRGSPGVVHLVAFHPDPTRLLLFSSATDAAIRVWSLQDRSCLAVLTAHYSAVTSLAFSADGHTMLSSGRDKICIIWDLQSCQATRTVPVFESVEAAVLLPEEPVSQLGVKSPGLYFLTAGDQGTLRVWEAASGQCVYTQAQPPGPGQELTHCTLAHTAGVVLTATADHNLLLYEARSLRLQKQFAGYSEEVLDVRFLGPEDSHVVVASNSPCLKVFELQTSACQILHGHTDIVLALDVFRKGWLFASCAKDQSVRIWRMNKAGQVMCVAQGSGHTHSVGTVCCSRLKESFLVTGSQDCTVKLWPLPKALLSKNTAPDNGPILLQAQTTQRCHDKDINSVAIAPNDKLLATGSQDRTAKLWALPQCQLLGVFSGHRRGLWCVQFSPMDQVLATASADGTIKLWALQDFSCLKTFEGHDASVLKVAFVSRGTQLLSSGSDGLVKLWTIKNNECVRTLDAHEDKVWGLHCSRLDDHALTGASDSRVILWKDVTEAEQAEEQARQEEQVVRQQELDNLLHEKRYLRALGLAISLDRPHTVLTVIQAIRRDPEACEKLEATMLRLRRDQKEALLRFCVTWNTNSRHCHEAQAVLGVLLRREAPEELLAYEGVRAALEALLPYTERHFQRLSRTLQAAAFLDFLWHNMKLPVPAAAPTPWETHKGALP
B2: sp¦Q13043¦STK4_HUMAN (protein, UniProt Q13043 1-487, looked up)
Serine/threonine-protein …: METVQLRNPPRRQLKKLDEDSLTKQPEEVFDVLEKLGEGSYGSVYKAIHKETGQIVAIKQVPVESDLQEIIKEISIMQQCDSPHVVKYYGSYFKNTDLWIVMEYCGAGSVSDIIRLRNKTLTEDEIATILQSTLKGLEYLHFMRKIHRDIKAGNILLNTEGHAKLADFGVAGQLTDTMAKRNTVIGTPFWMAPEVIQEIGYNCVADIWSLGITAIEMAEGKPPYADIHPMRAIFMIPTNPPPTFRKPELWSDNFTDFVKQCLVKSPEQRATATQLLQHPFVRSAKGVSILRDLINEAMDVKLKRQESQQREVDQDDEENSEEDEMDSGTMVRAVGDEMGTVRVASTMTDGANTMIEHDDTLPSQLGTMVINAEDEEEEGTMKRRDETMQPAKPSFLEYFEQKEKENQINSFGKSVPGPLKNSSDWKIPQDGDYEFLKSWTVEDLQKRLLALDPMMEQEIEEIRQKYQSKRQPILDAIEAKKRRQQNF
B3: sp¦Q9BUJ2¦HNRL1_HUMAN (protein, UniProt Q9BUJ2 1-856, looked up)
Heterogeneous nuclear …: MDVRRLKVNELREELQRRGLDTRGLKAELAERLQAALEAEEPDDERELDADDEPGRPGHINEEVETEGGSELEGTAQPPPPGLQPHAEPGGYSGPDGHYAMDNITRQNQFYDTQVIKQENESGYERRPLEMEQQQAYRPEMKTEMKQGAPTSFLPPEASQLKPDRQQFQSRKRPYEENRGRGYFEHREDRRGRSPQPPAEEDEDDFDDTLVAIDTYNCDLHFKVARDRSSGYPLTIEGFAYLWSGARASYGVRRGRVCFEMKINEEISVKHLPSTEPDPHVVRIGWSLDSCSTQLGEEPFSYGYGGTGKKSTNSRFENYGDKFAENDVIGCFADFECGNDVELSFTKNGKWMGIAFRIQKEALGGQALYPHVLVKNCAVEFNFGQRAEPYCSVLPGFTFIQHLPLSERIRGTVGPKSKAECEILMMVGLPAAGKTTWAIKHAASNPSKKYNILGTNAIMDKMRVMGLRRQRNYAGRWDVLIQQATQCLNRLIQIAARKKRNYILDQTNVYGSAQRRKMRPFEGFQRKAIVICPTDEDLKDRTIKRTDEEGKDVPDHAVLEMKANFTLPDVGDFLDEVLFIELQREEADKLVRQYNEEGRKAGPPPEKRFDNRGGGGFRGRGGGGGFQRYENRGPPGGNRGGFQNRGGGSGGGGNYRGGFNRSGGGGYSQNRWGNNNRDNNNSNNRGSYNRAPQQQPPPQQPPPPQPPPQQPPPPPSYSPARNPPGASTYNKNSNIPGSSANTSTPTVSSYSPPQPSYSQPPYNQGGYSQGYTAPPPPPPPPPAYNYGSYGGYNPAPYTPPPPPTAQTYPQPSYNQYQQYAQQWNQYYQNQGQWPPYYGNYDYGSYSGNTQGGTSTQ
B4: sp¦Q13011¦ECH1_HUMAN (protein, UniProt Q13011 34-328, looked up)
Delta(3,5)-Delta(2,4)-dienoyl- …: TGSSAQEEASGVALGEAPDHSYESLRVTSAQKHVLHVQLNRPNKRNAMNKVFWREMVECFNKISRDADCRAVVISGAGKMFTAGIDLMDMASDILQPKGDDVARISWYLRDIITRYQETFNVIERCPKPVIAAVHGGCIGGGVDLVTACDIRYCAQDAFFQVKEVDVGLAADVGTLQRLPKVIGNQSLVNELAFTARKMMADEALGSGLVSRVFPDKEVMLDAALALAAEISSKSPVAVQSTKVNLLYSRDHSVAESLNYVASWNMSMLQTQDLVKSVQATTENKELKTVTFSKL
B5: sp¦Q53EL6¦PDCD4_HUMAN (protein, UniProt Q53EL6 1-469, looked up)
Programmed cell death protein …: MDVENEQILNVNPADPDNLSDSLFSGDEENAGTEEIKNEINGNWISASSINEARINAKAKRRLRKNSSRDSGRGDSVSDSGSDALRSGLTVPTSPKGRLLDRRSRSGKGRGLPKKGGAGGKGVWGTPGQVYDVEEVDVKDPNYDDDQENCVYETVVLPLDERAFEKTLTPIIQEYFEHGDTNEVAEMLRDLNLGEMKSGVPVLAVSLALEGKASHREMTSKLLSDLCGTVMSTTDVEKSFDKLLKDLPELALDTPRAPQLVGQFIARAVGDGILCNTYIDSYKGTVDCVQARAALDKATVLLSMSKGGKRKDSVWGSGGGQQSVNHLVKEIDMLLKEYLLSGDISEAEHCLKELEVPHFHHELVYEAIIMVLESTGESTFKMILDLLKSLWKSSTITVDQMKRGYERIYNEIPDINLDVPHSYSVLERFVEECFQAGIISKQLRDLCPSRGRKRFVSEGDGGRLKPESY
B6: sp¦Q9BS26¦ERP44_HUMAN (protein, UniProt Q9BS26 30-406, looked up)
Endoplasmic reticulum …: EITSLDTENIDEILNNADVALVNFYADWCRFSQMLHPIFEEASDVIKEEFPNENQVVFARVDCDQHSDIAQRYRISKYPTLKLFRNGMMMKREYRGQRSVKALADYIRQQKSDPIQEIRDLAEITTLDRSKRNIIGYFEQKDSDNYRVFERVANILHDDCAFLSAFGDVSKPERYSGDNIIYKPPGHSAPDMVYLGAMTNFDVTYNWIQDKCVPLVREITFENGEELTEEGLPFLILFHMKEDTESLEIFQNEVARQLISEKGTINFLHADCDKFRHPLLHIQKTPADCPVIAIDSFRHMYVFGDFKDVLIPGKLKQFVFDLHSGKLHREFHHGPDPTDTAPGEQAQDVASSPPESSFQKLAPSEYRYTLLRDRDEL
B7: sp¦Q13423¦NNTM_HUMAN (protein, UniProt Q13423 44-1086, looked up)
NAD(P) transhydrogenase, …: CKAPVKPGIPYKQLTVGVPKEIFQNEKRVALSPAGVQNLVKQGFNVVVESGAGEASKFSDDHYRVAGAQIQGAKEVLASDLVVKVRAPMVNPTLGVHEADLLKTSGTLISFIYPAQNPELLNKLSQRKTTVLAMDQVPRVTIAQGYDALSSMANIAGYKAVVLAANHFGRFFTGQITAAGKVPPAKILIVGGGVAGLASAGAAKSMGAIVRGFDTRAAALEQFKSLGAEPLEVDLKESGEGQGGYAKEMSKEFIEAEMKLFAQQCKEVDILISTALIPGKKAPVLFNKEMIESMKEGSVVVDLAAEAGGNFETTKPGELYIHKGITHIGYTDLPSRMATQASTLYSNNITKLLKAISPDKDNFYFDVKDDFDFGTMGHVIRGTVVMKDGKVIFPAPTPKNIPQGAPVKQKTVAELEAEKAATITPFRKTMSTASAYTAGLTGILGLGIAAPNLAFSQMVTTFGLAGIVGYHTVWGVTPALHSPLMSVTNAISGLTAVGGLALMGGHLYPSTTSQGLAALAAFISSVNIAGGFLVTQRMLDMFKRPTDPPEYNYLYLLPAGTFVGGYLAALYSGYNIEQIMYLGSGLCCVGALAGLSTQGTARLGNALGMIGVAGGLAATLGVLKPGPELLAQMSGAMALGGTIGLTIAKRIQISDLPQLVAAFHSLVGLAAVLTCIAEYIIEYPHFATDAAANLTKIVAYLGTYIGGVTFSGSLIAYGKLQGLLKSAPLLLPGRHLLNAGLLAASVGGIIPFMVDPSFTTGITCLGSVSALSAVMGVTLTAAIGGADMPVVITVLNSYSGWALCAEGFLLNNNLLTIVGALIGSSGAILSYIMCVAMNRSLANVILGGYGTTSTAGGKPMEISGTHTEINLDNAIDMIREANSIIITPGYGLCAAKAQYPIADLVKMLTEQGKKVRFGIHPVAGRMPGQLNVLLAEAGVPYDIVLEMDEINHDFPDTDLVLVIGANDTVNSAAQEDPNSIIAGMPVLEVWKSKQVIVMKRSLGVGYAAVDNPIFYKPNTAMLLGDAKKTCDALQAKVRESYQK
B8: sp¦Q14697¦GANAB_HUMAN (protein, UniProt Q14697 29-944, looked up)
Neutral alpha-glucosidase AB: ITLAVDRSNFKTCEESSFCKRQRSIRPGLSPYRALLDSLQLGPDSLTVHLIHEVTKVLLVLELQGLQKNMTRFRIDELEPRRPRYRVPDVLVADPPIARLSVSGRDENSVELTMAEGPYKIILTARPFRLDLLEDRSLLLSVNARGLLEFEHQRAPRVSQGSKDPAEGDGAQPEETPRDGDKPEETQGKAEKDEPGAWEETFKTHSDSKPYGPMSVGLDFSLPGMEHVYGIPEHADNLRLKVTEGGEPYRLYNLDVFQYELYNPMALYGSVPVLLAHNPHRDLGIFWLNAAETWVDISSNTAGKTLFGKMMDYLQGSGETPQTDVRWMSETGIIDVFLLLGPSISDVFRQYASLTGTQALPPLFSLGYHQSRWNYRDEADVLEVDQGFDDHNLPCDVIWLDIEHADGKRYFTWDPSRFPQPRTMLERLASKRRKLVAIVDPHIKVDSGYRVHEELRNLGLYVKTRDGSDYEGWCWPGSAGYPDFTNPTMRAWWANMFSYDNYEGSAPNLFVWNDMNEPSVFNGPEVTMLKDAQHYGGWEHRDVHNIYGLYVHMATADGLRQRSGGMERPFVLARAFFAGSQRFGAVWTGDNTAEWDHLKISIPMCLSLGLVGLSFCGADVGGFFKNPEPELLVRWYQMGAYQPFFRAHAHLDTGRREPWLLPSQHNDIIRDALGQRYSLLPFWYTLLYQAHREGIPVMRPLWVQYPQDVTTFNIDDQYLLGDALLVHPVSDSGAHGVQVYLPGQGEVWYDIQSYQKHHGPQTLYLPVTLSSIPVFQRGGTIVPRWMRVRRSSECMKDDPITLFVALSPQGTAQGELFLDDGHTFNYQTRQEFLLRRFSFSGNTLVSSSADPEGHFETPIWIERVVIIGAGKPAAVVLQTKGSPESRLSFQHDPETSVLVLRKPGINVASDWSIHLR

Tested on: human HL60 cells
Assay: SWATH-MS proteomics, differential protein representation, akirin2 KO vs WT HL60 cells
Assay type: cell-based
Conditions: KO vs WT HL60 cells; sheet "Under-represented in KO"
Summary of the method: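 Differential representation compares akirin2 KO with WT HL60 across three biological replicates, 5 µg digest each, acquired by data-independent SWATH on a 120-min gradient. Library built from combined IDA runs searched with Paragon; proteins accepted at 1% FDR, with total-area-sum normalization.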

**Q.** With B1 as the molecule, how does the “Fold Change” value read?
**A.** The value was 0.8625.

**Q.** What about the “Log (Fold Change)” value of the same molecule?
**A.** The value was -0.06425.

**Q.** What does the source list for B2?
**A.** Fold Change: 0.8606; Log (Fold Change): -0.06519

**Q.** Which “Fold Change” value does the source give for B3 here?
**A.** The value was 0.8561.

**Q.** And the “Log (Fold Change)” value?
**A.** The value was -0.06747.

**Q.** B4 was tested. Which “Fold Change” value did it give?
**A.** Its value is 0.8532.

**Q.** And the “Log (Fold Change)” value?
**A.** The value was -0.06896.

**Q.** For B5, which “Fold Change” value is on record?
**A.** The value was 0.8578.

**Q.** And the “Log (Fold Change)” value?
**A.** The value was -0.06661.

Same assay, conditions: akirin2 KO vs WT HL60 cells, SWATH-MS; sheet "Under-represented in KO"

**Q.** What does the source list for B6?
**A.** Fold Change: 0.8499; Log (Fold Change): -0.07066

**Q.** What does the source list for B7?
**A.** Fold Change: 0.8519; Log (Fold Change): -0.06959

**Q.** What does the source list for B8?
**A.** Fold Change: 0.851; Log (Fold Change): -0.07007
